Measurements reported in PubChem BioAssay AID504774 (Drosophila RNAi Screening Center, 2011).
The screen tested about 23,000 reagents; shown is an unselected part of those with a known target gene and a result. 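Values are quantile-normalised luminescence on an arbitrary scale; higher means more cells surviving MMS.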 Not all columns of the deposit are shown.

- Screen: 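Knock-downs that shift viability of MMS-exposed cells relative to untreated ones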 (primary screen)
- Cells: Drosophila Kc167 cells
- Knock-down reagent: long dsRNA against Drosophila genes, about 0.25 µg dsRNA per well
- Time to read-out: about 6 days: 3 days knock-down, then 3 days with or without MMS
- Conditions: methyl methanesulphonate 0.004% (w/v) for 3 days after knock-down
- Measurement: 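ATP-dependent luminescence as a measure of live cells in MMS-exposed wells, quantile normalised within each plate, with replicate values also given as a mean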
- Reading the numbers: mean viability with MMS: higher = more surviving cells after MMS

How did the screen score CG10395 [DRSC04840]?
mean viability with MMS: 3.50e6

With CG32176 [DRSC10057], how do the results read?
mean viability with MMS: 3.71e6

Which result is listed for CG32176 [DRSC10058]?
mean viability with MMS: 3.55e6

What did the screen give for CG17646 [DRSC00507]?
mean viability with MMS: 3.62e6

Which result is listed for CG31270 (retired record) [DRSC22252]?
mean viability with MMS: 3.45e6

With nebu [DRSC09807], what was measured?
mean viability with MMS: 3.52e6

With nebu [DRSC09808], what does the deposit list?
mean viability with MMS: 3.65e6

For Or59c [DRSC04633], what was measured?
mean viability with MMS: 3.55e6

What did the screen give for CG16772 [DRSC02516]?
mean viability with MMS: 3.79e6

How did the screen score CG18581 [DRSC10324]?
mean viability with MMS: 3.56e6

For CG14860 [DRSC14983], what was measured?
mean viability with MMS: 3.56e6

With HipHop [DRSC10734], what was measured?
mean viability with MMS: 3.56e6

For MP1 [DRSC12124], how do the results read?
mean viability with MMS: 3.68e6

For CG15308 [DRSC17995], what does the deposit list?
mean viability with MMS: 3.60e6

What did the screen give for CG7335 [DRSC10816]?
mean viability with MMS: 3.61e6

For mtTFB2 [DRSC15519], how do the results read?
mean viability with MMS: 3.45e6

With Mks1 [DRSC19697], what was measured?
mean viability with MMS: 3.29e6

With CG10376 [DRSC02049], how do the results read?
mean viability with MMS: 3.60e6

For CG1513 [DRSC05194], what was measured?
mean viability with MMS: 3.50e6

How did the screen score CG1513 [DRSC06553]?
mean viability with MMS: 1.63e6

For CG1513 [DRSC06554], what does the deposit list?
mean viability with MMS: 3.57e6

Which result is listed for CG9853 [DRSC12343]?
mean viability with MMS: 3.57e6

For CG9853 [DRSC22840], what does the deposit list?
mean viability with MMS: 3.39e6

What did the screen give for TwdlY [DRSC19153]?
mean viability with MMS: 3.48e6

How did the screen score CG33062 [DRSC22195]?
mean viability with MMS: 3.53e6

What did the screen give for Gclc [DRSC18666]?
mean viability with MMS: 2.68e6

For Cpr56F [DRSC07326], what does the deposit list?
mean viability with MMS: 3.53e6

With Acsx1R [DRSC14339], what was measured?
mean viability with MMS: 3.61e6

With Nmdmc [DRSC16760], what was measured?
mean viability with MMS: 3.61e6

How did the screen score X11Lbeta [DRSC18156]?
mean viability with MMS: 3.42e6

For X11Lbeta [DRSC18158], what was measured?
mean viability with MMS: 3.56e6

What did the screen give for CG5674 [DRSC02874]?
mean viability with MMS: 2.85e6

With CG5674 [DRSC23176], what does the deposit list?
mean viability with MMS: 3.78e6

Which result is listed for PpD6 [DRSC00774]?
mean viability with MMS: 3.55e6

What is on record for PpD6 [DRSC23331]?
mean viability with MMS: 3.64e6

A run of entries of the results above:
CG32176 [DRSC10058] → mean viability with MMS = 3.55e6
CG17646 [DRSC00507] → mean viability with MMS = 3.62e6
